According to PubChem BioAssay AID662 (National Center for Advancing Translational Sciences (NCATS), 2007):
This is one part of the list. Further columns of the screen follow, without active or inactive calls. The list favours compounds with an active or inconclusive main result. Words in brackets tell the shape of the fitted curve; partial curves, single points and poor fits give uncertain potencies.

Experiment: Cell signaling CRE-BLA (Fsk stim)
Conditions: CHO CRE-bla reporter (cAMP response element driving beta-lactamase), forskolin EC10, beta-lactamase ratio; measured here: 460 nm blue channel
Summary of the method: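 Beta-lactamase reporter under a cAMP responsive element in CHO cells; compounds tested in titration series against EC10 NKH 477, 3 h at 37 °C. Read-out: CCF4 FRET ratio 460nm/530nm (excitation 405nm) giving %Activity, fitted to AC50.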

Compound	AC50
COc1ccc(CNc2nc(-c3c(C)noc3C)nc3ccccc23)c(OC)c1	10 µM [rising, partial curve]
O=C1CSc2ccccc2N1Cc1ccccc1F	25.1 µM [rising, single point]
Cc1cc(C)c2nc(N3CCCC3)c(C#N)cc2c1	12.6 µM [rising, partial curve]
Cc1cccc(-c2noc(-c3ccccc3C(=O)NCC3CCCO3)n2)c1 (stereo not drawn)	2.51 µM [falling, single point]
Cc1c(-c2ccccc2)nc2ccccc2c1C(=O)O	0.631 µM [rising, full curve]
CCCn1c(C)nc2c(NC3CCN(Cc4ccccc4)C3)nc(C)nc21 (stereo not drawn)	12.6 µM [rising, partial curve, poor fit]
CC(/C=C/C=C(C)/C=C/C(=O)O)=C\C=C\C=C(C)\C=C\C=C(C)\C=C\C(=O)O	1.26 µM [falling, full curve, poor fit]
CCNc1ncc2nc(-c3cn(C)c4ccccc34)c(=O)n(C)c2n1	10 µM [rising, partial curve]
CCCn1c(=NC(C)=O)c(C#N)cc2c(=O)n3cccc(C)c3nc21	2 µM [rising, full curve]
O=C(CC(=O)c1ccccc1)Nc1ccc2c(c1)OCCO2	12.6 µM [falling, partial curve, poor fit]
N=c1c(C(=O)NCc2ccc(F)cc2)cc2c(=O)n3ccccc3nc2n1Cc1ccco1	6.31 µM [rising, partial curve]
CC(C)(C)c1ccc(-c2nnc3sc(-c4ccccn4)nn23)cc1	7.94 µM [rising, partial curve]
COc1ccc(Cn2c(C)ccc2C)cc1	0.316 µM [rising, full curve]
CCOc1ccccc1C1C(C#N)=C(N)SC(N)=C1C#N	5.01 µM [falling, single point]
CCOC(=O)c1ccc(N2C(=O)CC(N3CCN(C(=O)c4ccco4)CC3)C2=O)cc1 (stereo not drawn)	0.158 µM [falling, full curve]
CC1CN(C(=O)CN2C(=O)NC(C)(c3ccccc3)C2=O)CC(C)O1 (stereo not drawn)	0.2 µM [falling, partial curve]
CCCCCCn1cnc2c(c1=O)c1nc3ccccc3nc1n2/N=C/c1ccco1	1.58 µM [rising, full curve]
CC(C)c1cc(=O)oc2c3c4c(cc12)CCCN4CCC3	12.6 µM [rising, partial curve]
CCOc1ccc(CCNC(=O)C2CCN(c3ccc(N4CCOCC4)nn3)CC2)cc1OCC	25.1 µM [rising, partial curve, poor fit]
Cc1ccc2[nH]c(C(=O)O)c(-c3ccccc3)c2c1	5.01 µM [falling, single point]
COc1ccccc1OCC(=O)NCC1CCCCC1	0.0316 µM [falling, full curve, poor fit]
Cn1c(C(=O)NCCN2CCOCC2)cc2c(=O)n(C)c3ccccc3c21	12.6 µM [rising, partial curve]

Filtered by structure: the compounds so far with a halogen (two)
Compound	AC50
O=C1CSc2ccccc2N1Cc1ccccc1F	25.1 µM [rising, single point]
N=c1c(C(=O)NCc2ccc(F)cc2)cc2c(=O)n3ccccc3nc2n1Cc1ccco1	6.31 µM [rising, partial curve]

Later entries.

Compound	AC50
CCc1ccc2oc(=O)cc(CN(C)Cc3ccccc3)c2c1	2 µM [rising, partial curve]
N#CC1=C(SCc2ccccc2)NC(=O)CC1c1ccc(O)cc1 (stereo not drawn)	0.00316 µM [falling, full curve, poor fit]
CCOc1ccc(-n2c(Cc3cc(=O)[nH]c(=O)[nH]3)nnc2SCC(N)=O)cc1	25.1 µM [rising, single point]
Cc1cccc(CNc2cc(-c3ccccc3C)ncn2)c1	25.1 µM [rising, single point]
O=C(Nc1ccccc1Cl)c1cc(S(=O)(=O)N2CCCC(C(=O)O)C2)ccc1F (stereo not drawn)	2 µM [rising, partial curve]
C=CCn1c(SCC(=O)Nc2cc(C)ccc2OC)nnc1-c1ccco1	10 µM [rising, single point]
COc1ccc(CNc2nc(-c3cccnc3)nn2C(=O)c2cccs2)cc1	3.98 µM [rising, full curve]
COc1ccc(N(CC(=O)N2c3ccccc3CC2C)S(=O)(=O)c2c(C)noc2C)cc1 (stereo not drawn)	10 µM [rising, partial curve, poor fit]
CCCC(=O)Nc1ccc2c(c1)nc1n2CCSC1	15.8 µM [rising, single point]
Cc1ccc(C(=O)CC2(O)C(=O)N(Cc3ccccc3Cl)c3ccccc32)o1 (stereo not drawn)	12.6 µM [falling, partial curve, poor fit]
COc1ncc2nc(-c3cccs3)c(=O)n(CCC#N)c2n1	12.6 µM [rising, partial curve]
COc1ncc2nc(CCc3ccccc3)c(=O)n(Cc3cccs3)c2n1	15.8 µM [rising, partial curve]
CCOC(=O)N1CCN(C(=O)c2cnsn2)CC1	0.316 µM [falling, partial curve]
Cn1c(SCc2cccnc2)nc2cccnc21	10 µM [rising, single point]
COc1cc(C)cc2c(-c3c(O)cc(O)c4c3C[C@H](C)N[C@@H]4C)cc(-c3cc(-c4c(O)cc(O)c5c4C[C@H](C)N[C@@H]5C)c4cc(C)cc(OC)c4c3O)c(O)c12	0.000794 µM [falling, full curve, poor fit]
Cc1nc(-c2ccccc2)nc2[nH]c(C(C)C)cc(=O)c12	12.6 µM [rising, partial curve]
O=C(CSc1ccc(Cl)cc1)c1ccco1	3.98 µM [falling, partial curve]
CCCCCCOC(=O)C(C#N)c1nc2ccccc2nc1N1CCCCC1 (stereo not drawn)	12.6 µM [rising, single point]
CC(C)(C)c1cc(C(=O)N2CCc3ccccc32)ccn1	12.6 µM [falling, partial curve]
CC(C)C(NS(=O)(=O)c1ccc2c(c1)OCCO2)C(=O)NCCc1ccccn1 (stereo not drawn)	0.0794 µM [falling, full curve, poor fit]
Cc1ccc(S(=O)(=O)Nc2nncs2)cc1	0.0126 µM [falling, full curve, poor fit]

Given with each value named: 2 of the compounds above.
Cc1cc(C)c2nc(N3CCCC3)c(C#N)cc2c1
  AC50: 12.6 µM [rising, partial curve]
Cc1cccc(-c2noc(-c3ccccc3C(=O)NCC3CCCO3)n2)c1 (stereo not drawn)
  AC50: 2.51 µM [falling, single point]
